Source: PubChem BioAssay AID819 (Columbia University Molecular Screening Center, 2007)
The campaign covered roughly 94,000 compounds. About 280 (0.3%) were called active. The inconclusive results got no clear call from the source; some entries with a clear call stand among them for comparison.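 How the source made its calls: active means activation above 40%, about the mean plus 3 SD, also judged a hit on visual image review; inconclusive means activation above 40% but not a hit on visual review; inactive means activation not above 40% and no visual hit.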

assay: enhancers of NFkB p65 translocation in HUVEC – imaging, IL-1B stimulus, high-content imaging, primary screen (AID 819); conditions: HUVEC IL-1B NFkB p65 nuclear translocation imaging; at 2 µM; stronger effect = higher value;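 further: percent activation is computed from the nuclear over cytoplasmic p65 intensity ratio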

SMILES | activation
Cc1ccccc1-c1nc(S(=O)(=O)c2ccc(Br)cc2)c(NCc2cccnc2)o1 | inactive: -11.4%
CC(C)CC(=O)O/N=C1\C(=O)N(Cc2ccc(Cl)cc2)c2ccc([N+](=O)[O-])cc21 | active: 47%
CC(C)C[C@H](NC(=O)OC(C)(C)C)c1nnc(SCc2ccccc2)o1 | inactive: 8.94%
C=CCn1c(SCc2ccc(C(=O)Nc3ccccc3)cc2)nnc1-c1ccccc1 | inconclusive: 59.7%
Cc1cccc(NC(=O)Nc2cccc(C)n2)n1 | inconclusive: 79.5%
CCOC(=O)N1CCN(C(=O)CCSc2ccccc2)CC1 | inconclusive: 48.1%
CCN(CC)C(=O)c1c2c(nc3ccccc13)-c1ccccc1CC2 | inactive: 4.62%
CC(NCc1ccc(N(C)C)cc1)C1CC2CCC1C2 (stereo not drawn) | inactive: -1.47%
CCCCNC(=O)Nc1ccon1 | inconclusive: 71.2%
CC1(C)Cc2nc3sc(C(=O)NCCO)c(N)c3cc2CO1 | inconclusive: 43.2%
COc1ccc(CN(C(=O)Cn2nnc3ccccc32)C(C(=O)NC(C)(C)C)c2ccco2)cc1 (stereo not drawn) | inconclusive: 45.6%
CCOC(=O)c1[nH]c(C)c(/C(O)=C2\C(=O)C(=O)N(CCN(C)C)C2c2cccc(OC)c2OC)c1C (stereo not drawn) | inconclusive: 89.4%
Cc1ccc(N=C2CCCN2Cc2ccccc2)c(C#N)c1 | inconclusive: 40.4%
O=C(OCC1CC(c2ccccc2)=NO1)c1ccc(Cl)cc1 (stereo not drawn) | active: 49.7%
CCOc1ccc(NC(=O)CN2C(=O)C3CCCN3C2=O)cc1 (stereo not drawn) | inconclusive: 55.4%
O=S(=O)(c1cc(Cl)cc(Cl)c1)N1CCCC1c1nc2ccccc2s1 (stereo not drawn) | inactive: 5.86%
O=C(c1cccc(F)c1)n1nnc2ccccc21 | inactive: 12.8%
Cc1cccc(N2CCN(C(=O)c3ccc(CS(=O)(=O)c4ccccc4C)o3)CC2C)c1 (stereo not drawn) | active: 48.5%
CCOC(=O)CSc1nnc(C)n1N | inconclusive: 44.6%
Cc1ccc(CNc2nc3c([nH]2)c(=O)n(C)c(=O)n3C)cc1 | inconclusive: 43.3%
COc1ccccc1NC(=O)CSc1nnc(CNC(=O)COc2ccc(Cl)cc2)o1 | active: 40.3%
Cc1ccc(CN(C(=O)c2csnn2)C(C(=O)NC2CCCC2)c2ccc(C)o2)cc1 (stereo not drawn) | inactive: 0.99%
CCOC(=O)c1ccc(NC(=O)CSc2nc(C)cc(=O)[nH]2)cc1 | inactive: 7.12%
C=CCn1c(=N)c(C(=O)NCCCOC)cc2c(=O)n3cc(C)ccc3nc21 | inconclusive: 42.7%

SMILES | activation
Cn1c(=O)c2c(ncn2CC(=O)NCc2cccnc2)n(C)c1=O | inactive: 1.9%
Cc1c(C(=O)OC(C)C)nnn1-c1nonc1N | inactive: 9.42%
O=C(O)CSc1nc(C(F)(F)F)cc(=O)n1-c1ccccc1 | inactive: 7.55%
C=COC(=O)CSc1nc(-c2cccs2)ccc1C#N | inconclusive: 44.5%
Cc1ccc(-c2nnc(SCC(=O)OC(C)C)n2N)cc1 | inconclusive: 70.8%
CC1CCc2c(sc(NC(=O)Cn3nc(C(F)(F)F)c4c3CCCCC4)c2C#N)C1 (stereo not drawn) | inconclusive: 60.5%
OCCNCCCCCOc1ccc(F)cc1 | inconclusive: 54.1%
CCOC(=O)C(C(=O)OCC)N(C#N)c1nc(SC)nc(N(C)C)n1 | inconclusive: 53.7%
Cc1ccc(C(=O)COC(=O)CCC(=O)Nc2cc(Cl)ccc2Cl)cc1[N+](=O)[O-] | inconclusive: 45.7%
CCOC(=O)C1(C)NC(c2ccc(N(C)C)cc2)C2C(=O)N(c3ccc(OC)cc3)C(=O)C21 (stereo not drawn) | inconclusive: 42.9%
COc1ccc(C2C(C(C)=O)=C(C)N=c3s/c(=C\c4ccc5c(c4)OCO5)c(=O)n32)c(OC)c1 (stereo not drawn) | inactive: 12.6%
CCc1nnc(NC(=O)CN2CCN(c3ccccc3OC)CC2)s1 | inactive: -3.9%
Cc1ccc(C(=O)Nc2ccc3c(c2)OCO3)cc1S(=O)(=O)N1CCCC1 | inactive: 9.53%
O=C(Nc1ccccc1)OCCNC(=O)c1ccccc1 | active: 40%
S=C(NCc1ccco1)N1CCN(Cc2ccc(Cl)cc2Cl)CC1 | inactive: 10.9%
COC(=O)c1c(NC(=O)CSc2nncs2)sc2c1CCCCC2 | active: 144%
O=C(C1CCC(C(=O)N2CCCCC2)CC1)N1CCCCC1 (stereo not drawn) | inconclusive: 51.3%
C/C(=C\C(=O)c1ccccc1)NCc1ccc(F)cc1 | inconclusive: 46.7%
O=S(=O)(Cc1ccc(Cl)cc1)NCC1CCCO1 (stereo not drawn) | inconclusive: 45.9%
CCC1CC(CSc2ncn[nH]2)OC1=O (stereo not drawn) | inactive: -9.45%
c1ccc(Cn2c(Sc3nnnn3-c3ccccc3)nnc2-c2ccccc2)cc1 | inconclusive: 41.9%
O=C(Nc1ccc(-c2nc3ccccc3s2)cc1)c1cc(-n2cnnc2)ccc1Cl | inconclusive: 73.2%
CCOC(=O)c1c(C)c(C(=O)NC2CCCCC2)c(C)n1CC | active: 154%
CCn1c(SCC(=O)Nc2cc3oc4ccccc4c3cc2OC)nnc1-c1cccs1 | active: 40.7%

SMILES | activation
CCCCNC(=S)NC(=O)c1ccc(Cl)cc1Cl | inconclusive: 40.9%
CCOc1ccc(C(=O)OCCN(CC)CC)cc1 | inactive: -0.34%
O=C(CN1C(=O)NC2(CCCC2)C1=O)Nc1ccc(F)c(F)c1F | active: 40.4%
COc1ccc(CCNc2oc(COc3ccccc3Cl)nc2C#N)cc1OC | inconclusive: 44.9%
CCCCSc1nc2c(cnn2-c2ccc(F)cc2)c(=O)[nH]1 | inconclusive: 54.1%
O=C(NNC(=O)C1COc2ccccc2O1)c1ccccc1 (stereo not drawn) | inconclusive: 77.1%
Fc1cccc(-n2c(-c3ccco3)nc3nc4ccccc4nc32)c1 | inconclusive: 40.2%
CC(=O)Nc1c(C(=O)N2CCN(c3ncccn3)CC2)cnn1-c1ccccc1Cl | active: 40%
COc1ccc(C(=O)/C=C/c2ccccc2F)c(OC(=O)c2ccc([N+](=O)[O-])cc2)c1 | inconclusive: 46.6%
Cc1cccc(N2CCN(S(=O)(=O)c3ccc4c(c3)n(C)c(=O)c(=O)n4C)CC2C)c1 (stereo not drawn) | inconclusive: 41.4%
Oc1c(/C=N/c2ncn[nH]2)ccc2ccccc12 | active: 47.4%
CN(C)N=Nc1ccc(S(=O)(=O)N2CCSC2C(=O)O)cc1 (stereo not drawn) | inactive: 16.7%
CCCC(=O)Nc1cc2c(cc1C(=O)c1ccccc1)OCCO2 | inconclusive: 58%
COc1cc(NC(=O)c2ccc(COc3ccccc3Br)o2)cc(OC)c1OC | inactive: 3.2%
COC(=O)c1ccc2c(c1)C(C)(C)C(/C=C/c1ccc(OC)c(OC)c1OC)=[N+]2C | inactive: -36.6%
Cc1cc(C(=O)Nc2ccc(S(=O)(=O)N3CCCC3)cc2)cs1 | inactive: 14%
O=C(CN1CCOCC1)NCc1ccccc1 | inconclusive: 41.1%
Cc1sc(NC(=O)CSc2nnc(COc3ccc(Cl)cc3)n2C)c(C#N)c1C | inactive: 8.13%
COc1ccc(/C=N/n2cc(-c3ccc(OC)cc3)nc2N)cc1 | inactive: -4.25%
O=C(CCSc1nc(-c2ccco2)cc(C(F)(F)F)n1)NCc1cccs1 | active: 47%
COc1ccccc1CN1CC(C(=O)N2CCN(c3ccc(F)cc3)CC2)CC1=O (stereo not drawn) | active: 41.1%
Cc1csc(SCC(=O)c2c(N)n(C)c(=O)n(C)c2=O)n1 | inactive: 14%
Cc1ccc(C(=O)NCCSC2CCCCC2)cc1S(=O)(=O)Nc1ccccc1 | inconclusive: 80.5%
COC(=O)C(/C=N/OCc1ccc([N+](=O)[O-])cc1)NC(=O)c1ccccc1 (stereo not drawn) | active: 43.9%

SMILES | activation
Cc1ccc(S(=O)(=O)N2CCOCC2)cc1NC(=O)Cn1ccsc1=N | active: 40.3%
CC(NC(=O)CCSc1nc(-c2ccc3c(c2)OCO3)cc(C(F)(F)F)n1)c1ccccc1 (stereo not drawn) | inactive: 12.9%
c1ccc(-n2cnc3cc(NCc4ccccn4)ccc32)cc1 | inactive: -8.96%
O=c1ccnc(NCCc2ccccc2)[nH]1 | inconclusive: 58.7%
COc1ccc(CNC(=O)C2CC(c3cccc(OC)c3)=NO2)cc1 (stereo not drawn) | inactive: -2.71%
CC(=O)Nc1cccc(NS(=O)(=O)Cc2ccc(Cl)cc2)c1 | inconclusive: 42.5%
Brc1cnc(N2CCCC2)nc1N1CCCCC1 | active: 41.1%
COc1ccc(C(=O)n2nc(-c3ccc(Cl)cc3)nc2N)cc1OC | active: 41.4%
CN1CCN(NC(=O)CN2C(=O)/C(=C/c3ccccc3Cl)SC2=S)CC1 | inconclusive: 45.7%
CC(C)C12CN3CC(C(C)C)(CN(C1)C31C(=O)Nc3ccccc31)C2=O (stereo not drawn) | inconclusive: 41.4%
Cc1ccc(-n2nc(C)c3c2OC(N)=C(C#N)C3c2ccccc2F)cc1 (stereo not drawn) | inconclusive: 47.7%
N#CCSc1nc2scc(-c3cccs3)c2c(=O)n1CCc1ccccc1 | inactive: -5.85%
CCc1ccc(S(=O)(=O)NCCc2cn3ccccc3n2)s1 | inconclusive: 94%
O=C(c1ccc(-c2ccccc2)cc1)N1CCN(c2ncccn2)CC1 | inactive: 0.93%
CCCCCn1c(CN2CCN(c3cccc(Cl)c3)CC2)nc2c1c(=O)n(C)c(=O)n2C | inactive: 9.53%
COC(=O)C1=C(N)Oc2cc(C)n(CC3CCCO3)c(=O)c2C1c1ccc(Cl)cc1 (stereo not drawn) | inconclusive: 100%
Cn1c(=O)c2c(nc(OCc3ccccc3)n2C)n(C)c1=O | inactive: 0.84%
CCc1nc(N2CCN(C(=O)c3ccccc3)CC2)c(C#N)c2c1COC(C)(C)C2 | inconclusive: 41%
Cn1nc(-c2ccc(C(=O)Nc3cccc(Cl)c3)cc2)c2ccccc2c1=O | inactive: -7.63%
COC(=O)CN1C(=O)CSc2ncccc21 | active: 52%
Cc1ccc2cc(C#N)c(N3CCCN(S(=O)(=O)c4ccc(F)cc4)CC3)nc2c1 | inconclusive: 42.1%
